Experimental findings from PMC7192894 are described below.

The target of experiment [1] is PorE OmpA_C-like putative peptidoglycan-binding domain (Porphyromonas gingivalis) (UniProt F5HF80). Put plainly: SEC-MALS; Superdex 200 Increase 10/300 GL, 10 mM HEPES pH 7.4, 200 mM NaCl, 0.6 mL/min; purified, concentrated protein; both purified. (Size exclusion chromatography separates by hydrodynamic size, large species first.)
Experiment [2] has the same target. Put plainly: crystal structure; both purified.

No constants are given. Whether binding was seen depends on the method and setting.

For “PorE OmpA_C-like putative peptidoglycan-binding domain (from UniProt F5HF80 534-668) (domain or fragment)”, the binding result in experiment [1] and in experiment [2] was “no binding” each time.
